No constants are given. Whether binding was seen depends on the method and setting. Binding seen in cells or lysates may run through a third protein. Some results given as binding are weak or reduced against the parent protein; the word gives no strength. Sequences can lack the tags named with a protein.
Biological target: T1, Histone deacetylase 8 (mouse (endogenous in RAW264.7)) (UniProt Q8VH37)
T1 sequence: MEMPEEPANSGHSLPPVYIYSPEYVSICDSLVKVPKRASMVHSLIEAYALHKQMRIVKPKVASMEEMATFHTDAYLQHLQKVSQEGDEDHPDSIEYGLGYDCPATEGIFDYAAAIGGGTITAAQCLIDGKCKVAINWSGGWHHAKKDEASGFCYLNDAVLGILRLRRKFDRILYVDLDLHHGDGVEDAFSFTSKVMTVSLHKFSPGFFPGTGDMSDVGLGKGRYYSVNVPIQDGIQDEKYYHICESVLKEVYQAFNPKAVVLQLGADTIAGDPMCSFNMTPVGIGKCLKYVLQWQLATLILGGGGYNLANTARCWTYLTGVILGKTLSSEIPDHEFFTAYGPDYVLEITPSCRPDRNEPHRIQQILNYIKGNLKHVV
Assay: co-IP; RAW264.7 cell lysate (cells treated with NS, IL-4 or IL-4 and PCI-34051); anti-HDAC8 or isotype IgG overnight at 4 °C, protein A/G Sepharose beads, western blot with Gal-3 and HDAC8 antibodies

By UniProt entry, the sequences of proteins in these tests, tags left out.
UniProt P16110: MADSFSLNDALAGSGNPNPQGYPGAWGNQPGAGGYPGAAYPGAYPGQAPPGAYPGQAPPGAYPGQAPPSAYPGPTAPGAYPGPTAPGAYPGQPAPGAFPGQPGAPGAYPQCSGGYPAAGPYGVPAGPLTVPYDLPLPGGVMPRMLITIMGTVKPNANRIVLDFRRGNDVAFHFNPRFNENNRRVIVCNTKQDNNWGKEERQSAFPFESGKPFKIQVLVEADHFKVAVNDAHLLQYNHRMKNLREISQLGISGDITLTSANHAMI

Galectin-3 (from UniProt P16110 1-264)
binding: binds

From article PMC7048058
